In paper PMC3384007, “Crystal Structure of the VapBC Toxin–Antitoxin Complex from Shigella flexneri Reveals a Hetero-Octameric DNA-Binding Assembly” (Journal of Molecular Biology, 2011):
These are yes or no findings as the source states them, for the method shown. Some entries that bind do so weakly or less than the wild type. Sequences can lack the tags named with a protein.

What was measured:
[1] = target: T1, Shigella flexneri VapB antitoxin (His6-VapB) (Shigella flexneri) (UniProt O06663); experiment: cross-linking; purified VapBC complex 1 mg/ml in 100 mM sodium borate pH 9.1 with dimethyl superimidate (DMSI), aliquots after 5-120 min, 15% Coomassie-stained SDS-PAGE; both purified
T1 sequence: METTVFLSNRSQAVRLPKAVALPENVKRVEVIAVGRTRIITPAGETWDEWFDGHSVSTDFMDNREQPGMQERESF

[2] = target: T1, Shigella flexneri VapB antitoxin (His6-VapB) (Shigella flexneri); experiment: crystal structure; His6-VapB:VapC complex, 7 mg/ml; crystals in 0.1 M Bis-Tris pH 5.5, 1 M ammonium sulfate, 0.5% (v/v) PEG 3350, 19 °C; 2.7 Å; four copies of each protein in the asymmetric unit (VapB4C4); both purified
[3] = target: T1, Shigella flexneri VapB antitoxin (His6-VapB) (Shigella flexneri); experiment: SEC; purified VapBC complex on a 24-ml Superdex 200 10/300 GL column; peak at 12.7 ml, about 105 kDa, fitting a VapB4C4 hetero-octamer; both purified

Measured: binding

B1: Shigella flexneri VapC toxin (MvpT) (natural protein)
chain: MLKFMLDTNICIFTIKNKPASVRERFNLNQGKMCISSVTLMELIYGAEKSQMPERNLAVIEGFVSRIDVLDYDAAAATHTGQIRAELARQGRPVGPFDQMIAGHARSRGLIIVTNNTREFERVGGLRTEDWS
notes: Untagged in this construct, purified through His6-VapB; also called PIN domain
binds: all assays above
